# Some of the results follow.
# Protein sequences, listed by entry. Tags and fused reporters are not part of them. Lines headed by an entry give the natural chain unless they say otherwise; changes in a name come on top.
# UniProt Q9ULH0: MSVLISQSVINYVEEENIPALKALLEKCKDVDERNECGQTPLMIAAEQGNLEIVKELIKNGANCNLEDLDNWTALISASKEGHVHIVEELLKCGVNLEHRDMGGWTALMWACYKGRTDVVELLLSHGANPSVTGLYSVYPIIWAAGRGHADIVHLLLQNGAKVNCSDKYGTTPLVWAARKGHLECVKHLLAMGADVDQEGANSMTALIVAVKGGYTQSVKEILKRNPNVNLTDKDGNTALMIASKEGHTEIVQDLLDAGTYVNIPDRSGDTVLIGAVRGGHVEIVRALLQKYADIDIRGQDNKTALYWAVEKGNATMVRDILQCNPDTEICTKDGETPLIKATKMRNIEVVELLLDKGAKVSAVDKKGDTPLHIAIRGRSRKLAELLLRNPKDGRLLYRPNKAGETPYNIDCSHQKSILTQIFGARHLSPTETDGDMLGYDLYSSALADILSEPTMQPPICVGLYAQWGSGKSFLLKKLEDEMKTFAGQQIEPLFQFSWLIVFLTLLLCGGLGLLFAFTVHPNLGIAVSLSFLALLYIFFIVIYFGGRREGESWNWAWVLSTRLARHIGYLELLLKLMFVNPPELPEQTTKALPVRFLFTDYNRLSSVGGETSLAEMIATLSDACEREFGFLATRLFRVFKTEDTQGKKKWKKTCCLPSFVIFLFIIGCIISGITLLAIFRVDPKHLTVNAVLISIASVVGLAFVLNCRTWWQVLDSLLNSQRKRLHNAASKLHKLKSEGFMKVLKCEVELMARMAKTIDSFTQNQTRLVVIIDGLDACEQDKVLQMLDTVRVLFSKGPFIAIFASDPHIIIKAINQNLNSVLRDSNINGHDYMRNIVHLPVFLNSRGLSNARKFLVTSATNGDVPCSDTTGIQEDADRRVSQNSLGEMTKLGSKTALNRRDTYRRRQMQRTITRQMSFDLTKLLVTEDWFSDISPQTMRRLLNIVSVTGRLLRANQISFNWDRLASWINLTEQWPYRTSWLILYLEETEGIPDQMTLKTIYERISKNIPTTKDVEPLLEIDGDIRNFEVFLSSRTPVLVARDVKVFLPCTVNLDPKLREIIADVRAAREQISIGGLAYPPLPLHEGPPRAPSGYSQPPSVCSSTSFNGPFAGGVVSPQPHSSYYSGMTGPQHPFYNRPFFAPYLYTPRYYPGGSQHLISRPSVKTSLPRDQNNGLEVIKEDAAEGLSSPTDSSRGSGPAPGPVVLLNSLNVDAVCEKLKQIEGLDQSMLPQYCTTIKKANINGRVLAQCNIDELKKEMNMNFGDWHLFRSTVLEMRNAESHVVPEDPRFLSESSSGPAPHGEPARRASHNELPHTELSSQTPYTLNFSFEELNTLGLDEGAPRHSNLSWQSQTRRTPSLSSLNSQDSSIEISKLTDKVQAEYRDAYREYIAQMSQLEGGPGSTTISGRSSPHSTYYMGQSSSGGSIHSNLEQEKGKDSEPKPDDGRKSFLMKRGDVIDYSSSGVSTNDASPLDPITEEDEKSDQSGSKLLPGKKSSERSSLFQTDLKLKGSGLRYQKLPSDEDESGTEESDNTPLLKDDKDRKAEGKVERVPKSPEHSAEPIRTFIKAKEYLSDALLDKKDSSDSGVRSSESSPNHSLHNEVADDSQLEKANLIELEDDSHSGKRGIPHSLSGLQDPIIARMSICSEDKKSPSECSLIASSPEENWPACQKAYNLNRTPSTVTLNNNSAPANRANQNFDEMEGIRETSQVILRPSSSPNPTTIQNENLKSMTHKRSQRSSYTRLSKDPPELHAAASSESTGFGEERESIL
# UniProt Q9BXK1: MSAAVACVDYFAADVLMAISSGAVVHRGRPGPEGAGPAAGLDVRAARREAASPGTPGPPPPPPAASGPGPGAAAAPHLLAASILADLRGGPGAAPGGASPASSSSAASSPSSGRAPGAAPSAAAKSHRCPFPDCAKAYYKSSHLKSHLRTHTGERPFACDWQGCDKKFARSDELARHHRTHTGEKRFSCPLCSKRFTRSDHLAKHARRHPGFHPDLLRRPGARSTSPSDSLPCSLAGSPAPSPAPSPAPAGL
# UniProt Q8WYB5, whole entry, looked up: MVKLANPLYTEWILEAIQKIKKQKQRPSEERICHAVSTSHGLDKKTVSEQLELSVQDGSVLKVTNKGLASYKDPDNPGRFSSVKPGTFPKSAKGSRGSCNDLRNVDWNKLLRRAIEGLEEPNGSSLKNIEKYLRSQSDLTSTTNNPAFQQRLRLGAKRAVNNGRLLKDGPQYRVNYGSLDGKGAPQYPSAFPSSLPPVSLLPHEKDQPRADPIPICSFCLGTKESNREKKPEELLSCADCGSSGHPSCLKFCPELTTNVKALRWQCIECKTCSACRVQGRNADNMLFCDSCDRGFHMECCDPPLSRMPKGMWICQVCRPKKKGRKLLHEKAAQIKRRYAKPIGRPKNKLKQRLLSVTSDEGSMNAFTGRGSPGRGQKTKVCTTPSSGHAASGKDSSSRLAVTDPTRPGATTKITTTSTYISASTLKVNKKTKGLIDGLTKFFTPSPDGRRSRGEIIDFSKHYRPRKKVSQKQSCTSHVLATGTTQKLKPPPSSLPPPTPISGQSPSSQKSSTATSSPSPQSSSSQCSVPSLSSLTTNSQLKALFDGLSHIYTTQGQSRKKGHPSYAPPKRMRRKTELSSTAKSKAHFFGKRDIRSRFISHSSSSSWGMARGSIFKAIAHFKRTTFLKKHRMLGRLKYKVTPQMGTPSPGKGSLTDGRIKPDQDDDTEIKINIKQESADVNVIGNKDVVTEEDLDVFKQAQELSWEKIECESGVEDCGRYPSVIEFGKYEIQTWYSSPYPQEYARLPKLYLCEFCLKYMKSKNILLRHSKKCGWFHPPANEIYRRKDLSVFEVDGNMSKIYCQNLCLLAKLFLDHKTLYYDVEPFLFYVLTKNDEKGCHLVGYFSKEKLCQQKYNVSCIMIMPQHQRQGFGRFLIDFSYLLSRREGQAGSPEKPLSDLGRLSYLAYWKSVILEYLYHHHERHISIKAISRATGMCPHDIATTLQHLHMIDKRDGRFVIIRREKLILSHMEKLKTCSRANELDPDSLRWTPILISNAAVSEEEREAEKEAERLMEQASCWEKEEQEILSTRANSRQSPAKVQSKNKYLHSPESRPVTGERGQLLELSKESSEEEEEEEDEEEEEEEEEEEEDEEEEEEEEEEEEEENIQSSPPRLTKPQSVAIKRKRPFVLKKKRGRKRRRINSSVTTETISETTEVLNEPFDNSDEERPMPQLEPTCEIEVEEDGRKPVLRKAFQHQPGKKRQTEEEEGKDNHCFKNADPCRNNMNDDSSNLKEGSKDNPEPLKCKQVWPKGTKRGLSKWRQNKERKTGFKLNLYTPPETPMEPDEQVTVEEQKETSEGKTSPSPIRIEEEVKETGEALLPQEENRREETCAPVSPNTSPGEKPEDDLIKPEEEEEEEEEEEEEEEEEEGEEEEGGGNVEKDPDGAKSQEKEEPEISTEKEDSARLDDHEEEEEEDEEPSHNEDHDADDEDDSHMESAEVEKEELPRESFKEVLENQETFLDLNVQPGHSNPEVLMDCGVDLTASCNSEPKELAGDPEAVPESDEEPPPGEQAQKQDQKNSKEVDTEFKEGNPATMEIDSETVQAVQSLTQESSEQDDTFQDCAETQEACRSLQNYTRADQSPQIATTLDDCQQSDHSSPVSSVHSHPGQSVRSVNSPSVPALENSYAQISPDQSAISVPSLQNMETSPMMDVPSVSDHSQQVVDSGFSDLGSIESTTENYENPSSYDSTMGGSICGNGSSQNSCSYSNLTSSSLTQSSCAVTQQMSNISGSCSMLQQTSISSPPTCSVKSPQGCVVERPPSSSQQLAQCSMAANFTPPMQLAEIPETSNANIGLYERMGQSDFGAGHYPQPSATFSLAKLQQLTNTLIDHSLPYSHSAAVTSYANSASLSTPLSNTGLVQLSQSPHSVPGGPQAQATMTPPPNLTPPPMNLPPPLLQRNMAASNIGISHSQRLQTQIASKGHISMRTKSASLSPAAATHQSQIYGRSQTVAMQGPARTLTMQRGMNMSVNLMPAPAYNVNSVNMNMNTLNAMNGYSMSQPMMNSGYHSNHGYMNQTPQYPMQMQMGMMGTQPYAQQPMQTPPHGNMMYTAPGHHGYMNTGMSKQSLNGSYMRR
# UniProt O43731: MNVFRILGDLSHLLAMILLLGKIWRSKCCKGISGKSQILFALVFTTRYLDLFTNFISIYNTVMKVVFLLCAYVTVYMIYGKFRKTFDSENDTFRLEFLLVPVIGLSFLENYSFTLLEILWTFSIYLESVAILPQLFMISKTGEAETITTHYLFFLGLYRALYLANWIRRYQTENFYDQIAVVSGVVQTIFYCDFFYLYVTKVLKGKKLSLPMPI
# UniProt Q9P2K6: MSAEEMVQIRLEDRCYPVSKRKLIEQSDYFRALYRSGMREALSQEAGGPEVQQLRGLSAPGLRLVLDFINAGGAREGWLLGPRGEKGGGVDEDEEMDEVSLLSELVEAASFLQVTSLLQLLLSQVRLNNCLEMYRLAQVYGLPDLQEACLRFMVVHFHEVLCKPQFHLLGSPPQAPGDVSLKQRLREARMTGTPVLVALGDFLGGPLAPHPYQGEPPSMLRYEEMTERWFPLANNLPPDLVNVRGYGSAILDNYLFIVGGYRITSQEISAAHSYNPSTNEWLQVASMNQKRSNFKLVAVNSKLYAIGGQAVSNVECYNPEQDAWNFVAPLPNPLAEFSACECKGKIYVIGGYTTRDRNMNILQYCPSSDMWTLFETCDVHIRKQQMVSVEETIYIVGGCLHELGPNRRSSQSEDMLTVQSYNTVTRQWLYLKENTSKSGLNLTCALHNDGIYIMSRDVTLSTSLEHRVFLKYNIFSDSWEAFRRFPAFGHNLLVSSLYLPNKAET
# UniProt Q9H910: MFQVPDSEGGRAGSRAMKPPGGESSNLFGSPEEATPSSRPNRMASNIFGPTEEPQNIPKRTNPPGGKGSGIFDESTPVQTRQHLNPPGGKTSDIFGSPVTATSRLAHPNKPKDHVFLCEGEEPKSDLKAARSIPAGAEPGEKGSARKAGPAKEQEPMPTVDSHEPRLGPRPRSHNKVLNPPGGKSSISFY
# UniProt Q9BVG8: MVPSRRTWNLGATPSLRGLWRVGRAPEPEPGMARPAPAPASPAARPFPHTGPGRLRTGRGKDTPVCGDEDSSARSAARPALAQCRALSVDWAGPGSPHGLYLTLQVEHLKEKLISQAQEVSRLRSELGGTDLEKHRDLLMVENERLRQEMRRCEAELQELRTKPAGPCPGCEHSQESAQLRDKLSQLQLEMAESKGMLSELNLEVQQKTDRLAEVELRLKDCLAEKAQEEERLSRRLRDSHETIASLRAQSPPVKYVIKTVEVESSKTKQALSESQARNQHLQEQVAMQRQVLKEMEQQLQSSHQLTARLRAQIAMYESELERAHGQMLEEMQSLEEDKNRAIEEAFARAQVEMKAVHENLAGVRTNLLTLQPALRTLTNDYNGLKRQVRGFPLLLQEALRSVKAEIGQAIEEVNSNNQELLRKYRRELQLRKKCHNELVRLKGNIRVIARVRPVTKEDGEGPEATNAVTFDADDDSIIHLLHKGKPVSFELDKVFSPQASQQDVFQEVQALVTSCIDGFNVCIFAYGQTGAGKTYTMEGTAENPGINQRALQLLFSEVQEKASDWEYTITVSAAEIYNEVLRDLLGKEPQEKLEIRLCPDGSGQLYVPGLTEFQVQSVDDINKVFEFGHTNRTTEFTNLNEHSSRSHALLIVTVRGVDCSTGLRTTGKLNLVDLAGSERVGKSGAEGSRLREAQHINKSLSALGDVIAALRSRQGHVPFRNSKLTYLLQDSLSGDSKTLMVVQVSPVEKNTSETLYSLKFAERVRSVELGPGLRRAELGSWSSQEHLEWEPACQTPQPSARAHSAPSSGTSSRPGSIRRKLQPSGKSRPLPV
# UniProt P24390: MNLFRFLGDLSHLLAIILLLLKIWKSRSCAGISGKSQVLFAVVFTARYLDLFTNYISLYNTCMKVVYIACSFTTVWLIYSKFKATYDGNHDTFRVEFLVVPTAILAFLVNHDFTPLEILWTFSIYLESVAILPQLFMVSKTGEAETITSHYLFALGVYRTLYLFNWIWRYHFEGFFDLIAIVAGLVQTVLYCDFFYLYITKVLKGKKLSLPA
# UniProt Q15053: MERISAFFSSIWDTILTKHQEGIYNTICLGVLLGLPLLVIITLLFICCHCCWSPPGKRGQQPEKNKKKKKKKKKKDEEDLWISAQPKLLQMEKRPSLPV
# UniProt Q9H079: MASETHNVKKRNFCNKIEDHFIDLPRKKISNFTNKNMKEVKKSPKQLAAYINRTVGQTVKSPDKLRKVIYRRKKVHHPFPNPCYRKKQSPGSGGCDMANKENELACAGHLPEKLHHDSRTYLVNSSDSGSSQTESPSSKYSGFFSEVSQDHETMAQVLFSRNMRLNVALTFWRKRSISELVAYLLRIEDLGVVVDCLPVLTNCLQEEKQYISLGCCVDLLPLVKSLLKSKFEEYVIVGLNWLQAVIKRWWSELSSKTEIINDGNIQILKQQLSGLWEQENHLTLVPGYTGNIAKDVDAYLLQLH
# Compound: C1=CC=C(C=C1)[C@H](COC2=CC3=C(C=C2)NC(=O)N3)NC(=O)C4=CC=CN(C4=O)CC5=CC(=C(C=C5)F)F
# Test: log2 fold change, soluble protein after heating vs DMSO (PISA); higher = thermal stabilisation; K562 cells, 10 uM, 30 min; active = over 0.2 and 3.5 SD of the protein, either way, in both replicates (recomputed)
# Outline: (§1)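 Aliquots of K562 cells (2×10^6 cells/mL) treated with 10 μM compound for 30 min were heated for 3 min over 48°C-58°C. After pooling and extraction in PBS with 0.5% NP-40 at 4°C, soluble protein from a 21,000xg, 90 min spin was quantified by TMTpro 16plex LC-MS/MS with channel sums equalised. Thermal stability is expressed against control samples, from duplicates, as a log2 fold change.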
row,Target,log2 fold change
1,KLHL7 isoform 3 (UniProt Q8IXQ5),inactive: 0.173
2,KIDINS220 isoform 2 (UniProt Q9ULH0),inactive: 0.057
3,KLF16 (UniProt Q9BXK1),inactive: -0.167
4,KIF1C (UniProt O43896),inactive: -0.055
5,KAT6B (UniProt Q8WYB5),inactive: -0.091
6,KDELR3 (UniProt O43731),inactive: 0.095
7,KLHL42 (UniProt Q9P2K6),inactive: -0.484
8,KAT7 (UniProt O95251),inactive: 0.129
9,KALRN (UniProt O60229),inactive: 0.063
10,KLF1 (UniProt Q13351),inactive: 0.171
11,KCNK1 (UniProt O00180),inactive: -0.02
12,KISS1R (UniProt Q969F8),inactive: 0.016
13,JPT2 isoform 2 (UniProt Q9H910),inactive: 0.022
14,KDM1B (UniProt Q8NB78),inactive: 0.028
15,KIFC3 isoform 6 (UniProt Q9BVG8),inactive: -0.079
16,KDELR1 (UniProt P24390),inactive: 0.069
17,KCNK5 (UniProt O95279),inactive: -0.028

# Compound: CC1=C(SC2=C1C(=N[C@H](C3=NN=C(N32)C)CC(=O)N)C4=CC=C(C=C4)Cl)C
# Test: as above
# Outline: as §1
row,Target,log2 fold change
1,KDF1 (UniProt Q8NAX2),inactive: 0.08
2,KIF13A isoform 4 (UniProt Q9H1H9),inactive: 0.031
3,KLHL7 isoform 3 (UniProt Q8IXQ5),inactive: 0.159
4,KMT2A isoform 3 (UniProt Q03164),inactive: 0.159
5,KIF16B isoform 2 (UniProt Q96L93),inactive: -0.061
6,KIAA0040 (UniProt Q15053),inactive: 0.037
7,KIF1C (UniProt O43896),inactive: 0.02
8,KDM6A (UniProt O15550),inactive: -0.083
9,KLHL42 (UniProt Q9P2K6),inactive: -0.051
10,KNL1 (UniProt Q8NG31),inactive: 0.216
11,KDM3A (UniProt Q9Y4C1),inactive: 0.058
12,KATNBL1 (UniProt Q9H079),inactive: 0.046
13,KALRN (UniProt O60229),inactive: 0.028
14,KIF4A (UniProt O95239),inactive: -0.051
15,KCNK1 (UniProt O00180),inactive: -0.263
16,KMT2E (UniProt Q8IZD2),inactive: 0.028
17,KIZ (UniProt Q2M2Z5),inactive: -0.082
18,KIFC1 (UniProt Q9BW19),inactive: -0.1
19,KCNK5 (UniProt O95279),inactive: 0.114
20,JOSD1 (UniProt Q15040),inactive: 0.012

# Compound: CC1=C2C(=CC=C1)N=C(N(C2=O)C3=CC=CC=C3C)CN4C=NC5=C(N=CN=C54)N
# Test: as above
# Outline: as §1
row,Target,log2 fold change
1,JMJD8 (UniProt Q96S16),inactive: 0.114
2,KLHL20 (UniProt Q9Y2M5),inactive: -0.048
3,KIDINS220 isoform 2 (UniProt Q9ULH0),inactive: 0.221
4,KIAA0040 (UniProt Q15053),inactive: 0.12
5,KLF16 (UniProt Q9BXK1),inactive: -0.302
6,KDM6A (UniProt O15550),inactive: 0.147
7,KAT6B (UniProt Q8WYB5),inactive: 0.025
8,KCTD1 (UniProt Q719H9),inactive: 0.156
9,KATNBL1 (UniProt Q9H079),inactive: -0.013
10,KAT7 (UniProt O95251),inactive: 0.144
11,KLF1 (UniProt Q13351),inactive: -0.065
12,KIF4A (UniProt O95239),inactive: 0.057
13,KIF1B isoform 3 (UniProt O60333),inactive: -0.246
14,JPT2 isoform 2 (UniProt Q9H910),inactive: -0.08
15,KIFC3 isoform 6 (UniProt Q9BVG8),inactive: 0.128

# Compound: Cc1sc2c(c1C)C(c1ccc(Cl)cc1)=N[C@@H](CC(=O)OC(C)(C)C)c1nnc(C)n1-2
# Test: as above
# Outline: as §1
row,Target,log2 fold change
1,KLHDC10 (UniProt Q6PID8),inactive: -0.062
2,KLHL20 (UniProt Q9Y2M5),inactive: -0.027
3,KIDINS220 isoform 2 (UniProt Q9ULH0),inactive: 0.145
4,KLF16 (UniProt Q9BXK1),inactive: 0.023
5,KAT6B (UniProt Q8WYB5),inactive: 0
6,KLC3 isoform 3 (UniProt Q6P597),inactive: 0.09
7,KCTD1 (UniProt Q719H9),inactive: 0.029
8,KDELR3 (UniProt O43731),inactive: -0.086
9,KLHL42 (UniProt Q9P2K6),inactive: 0
10,KNL1 (UniProt Q8NG31),inactive: -0.041
11,KATNBL1 (UniProt Q9H079),inactive: 0.081
12,KIF4A (UniProt O95239),inactive: -0.009
13,KISS1R (UniProt Q969F8),inactive: -0.065
14,JPT2 isoform 2 (UniProt Q9H910),inactive: 0.053
15,KDM1B (UniProt Q8NB78),inactive: -0.147
16,KIFC3 isoform 6 (UniProt Q9BVG8),inactive: -0.027
17,KDELR1 (UniProt P24390),inactive: 0.207
